Assay [1] has as its target Myc-tagged human wild-type PINK1 (pBOS-3×-Myc-hPINK1-WT) (human) (UniProt Q9BXM7). The assay is described as follows: co-IP; HEK293 cells transfected 48 h with Myc-PINK1 and/or hTERT-HA; lysates separated into cytosolic and membrane organelle fractions, each immunoprecipitated with anti-Myc antibody, immunoblotted with anti-HA. A general note: A western blot detects proteins with antibodies after separation by electrophoresis.

Protein sequences, listed by entry. Tags and fused reporters are not part of them. Lines headed by an entry give the natural chain unless they say otherwise; changes in a name come on top.
UniProt Q9BXM7: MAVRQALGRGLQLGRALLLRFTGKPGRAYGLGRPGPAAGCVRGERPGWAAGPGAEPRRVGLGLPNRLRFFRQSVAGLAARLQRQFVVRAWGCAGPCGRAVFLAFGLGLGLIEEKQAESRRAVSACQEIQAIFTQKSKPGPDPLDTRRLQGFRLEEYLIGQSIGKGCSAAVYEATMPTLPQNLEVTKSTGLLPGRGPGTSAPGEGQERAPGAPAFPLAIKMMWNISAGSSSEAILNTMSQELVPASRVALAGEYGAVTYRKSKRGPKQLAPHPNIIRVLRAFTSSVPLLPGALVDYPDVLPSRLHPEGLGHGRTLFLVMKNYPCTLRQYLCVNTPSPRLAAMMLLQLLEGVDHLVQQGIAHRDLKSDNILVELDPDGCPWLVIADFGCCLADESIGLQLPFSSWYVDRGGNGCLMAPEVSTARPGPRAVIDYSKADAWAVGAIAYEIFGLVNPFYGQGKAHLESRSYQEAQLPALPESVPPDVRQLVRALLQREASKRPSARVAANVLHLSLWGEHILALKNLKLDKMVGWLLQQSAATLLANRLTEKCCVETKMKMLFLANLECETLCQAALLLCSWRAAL
UniProt O14746: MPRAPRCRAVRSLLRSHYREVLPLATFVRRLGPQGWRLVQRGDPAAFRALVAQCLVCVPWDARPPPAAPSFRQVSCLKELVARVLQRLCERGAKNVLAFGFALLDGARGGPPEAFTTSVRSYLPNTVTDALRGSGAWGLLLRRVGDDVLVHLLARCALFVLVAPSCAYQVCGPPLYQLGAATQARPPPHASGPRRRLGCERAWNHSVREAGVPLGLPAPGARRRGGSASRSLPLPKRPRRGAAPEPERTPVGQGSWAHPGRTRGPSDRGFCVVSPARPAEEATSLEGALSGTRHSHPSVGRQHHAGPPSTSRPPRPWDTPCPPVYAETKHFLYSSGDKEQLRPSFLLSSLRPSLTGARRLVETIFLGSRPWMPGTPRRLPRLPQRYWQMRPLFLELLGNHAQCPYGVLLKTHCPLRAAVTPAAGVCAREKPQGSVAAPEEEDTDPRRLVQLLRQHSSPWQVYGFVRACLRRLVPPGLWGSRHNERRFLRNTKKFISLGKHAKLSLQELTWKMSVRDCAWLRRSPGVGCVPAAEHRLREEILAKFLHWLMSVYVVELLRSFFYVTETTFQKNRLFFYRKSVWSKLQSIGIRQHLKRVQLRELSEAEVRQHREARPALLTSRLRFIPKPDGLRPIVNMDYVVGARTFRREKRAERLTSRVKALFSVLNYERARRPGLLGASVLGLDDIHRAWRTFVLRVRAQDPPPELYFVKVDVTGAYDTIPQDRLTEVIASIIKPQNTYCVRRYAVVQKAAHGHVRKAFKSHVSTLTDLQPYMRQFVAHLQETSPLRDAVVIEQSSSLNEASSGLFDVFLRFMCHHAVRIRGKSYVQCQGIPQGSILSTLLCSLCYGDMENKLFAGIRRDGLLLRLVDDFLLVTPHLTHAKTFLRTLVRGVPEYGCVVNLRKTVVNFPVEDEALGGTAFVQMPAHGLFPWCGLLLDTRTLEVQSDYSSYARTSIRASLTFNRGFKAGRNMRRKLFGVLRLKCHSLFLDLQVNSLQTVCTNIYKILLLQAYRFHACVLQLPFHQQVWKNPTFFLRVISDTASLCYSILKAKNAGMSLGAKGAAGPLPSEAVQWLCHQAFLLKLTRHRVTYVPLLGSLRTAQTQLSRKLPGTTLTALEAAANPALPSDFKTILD

Assay [2] has the same target. The assay can be described thus: co-IP; HEK293 cells transfected 48 h with Myc-PINK1 and/or hTERT-HA; total cell lysates immunoprecipitated with anti-Myc antibody, immunoblotted; lysis buffer 50 mM Tris pH 7.4, 1.0% Nonidet P-40, 150 mM NaCl, 10% glycerol; 4 °C.
For assay [3], the target named is T1, FLAG-tagged mitochondrial processing peptidase β (FLAG-MPPβ) (UniProt O75439).
T1 sequence: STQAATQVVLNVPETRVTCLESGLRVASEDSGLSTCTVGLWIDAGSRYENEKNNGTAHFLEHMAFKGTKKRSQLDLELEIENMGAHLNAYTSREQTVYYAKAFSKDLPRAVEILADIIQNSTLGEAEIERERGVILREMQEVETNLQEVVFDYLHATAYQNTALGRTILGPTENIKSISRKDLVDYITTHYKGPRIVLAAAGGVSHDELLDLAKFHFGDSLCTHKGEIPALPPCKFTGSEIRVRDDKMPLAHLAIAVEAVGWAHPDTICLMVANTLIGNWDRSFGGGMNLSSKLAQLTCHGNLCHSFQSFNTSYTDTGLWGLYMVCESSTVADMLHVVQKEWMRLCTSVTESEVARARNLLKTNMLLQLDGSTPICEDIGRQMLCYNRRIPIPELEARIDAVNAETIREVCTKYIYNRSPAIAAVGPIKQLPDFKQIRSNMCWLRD
The assay can be described thus: co-IP; HEK293 cells transfected (24 h or 48 h) with FLAG-MPPβ and Myc-PINK1 or hTERT-HA; total cell lysates immunoprecipitated with anti-FLAG antibody, immunoblotted.

The target of assay [4] is T1, FLAG-tagged mitochondrial processing peptidase β (FLAG-MPPβ). The assay is described as follows: co-IP; HEK293 cells transfected 48 h with PINK1-Myc and FLAG-MPPβ, with or without hTERT-HA, or with or without hTERT-siRNA and 40 μM anisomycin for 30 h; lysates immunoprecipitated with anti-FLAG antibody, immunoblotted.

Results are given in words; binding and its absence hold for the method and conditions named. Binding seen in cells or lysates may run through a third protein. A result given as binding can be weak or reduced; the word gives no strength. For some of these results: Where a sequence is shown, tags or fusion partners need not be part of it.

Regarding “HA-tagged human telomerase reverse transcriptase (hTERT-HA) (from UniProt O14746 1-1132)”, the binding entry in assay [1] and in assay [2] was “binds” each time.
Regarding “Myc-tagged human wild-type PINK1 (pBOS-3×-Myc-hPINK1-WT) (from UniProt Q9BXM7)”, the binding entry in assay [3] and in assay [4] was “binds” in each case.

Values taken from paper PMC7280311.
